Values quoted from earlier work in patent US6159501A, “Modified release multiple-units dosage composition for release of opioid compounds” (Nycomed Danmark A/S, priority 1996, dated 2000).

Details: cancer patients; cited from earlier work

## CN1CC[C@]23c4c5ccc(O)c4O[C@H]2[C@@H](O)C=C[C@H]3[C@H]1C5 [morphine]
  steady-state plasma concentrations associated with satisfactory analgesia: 16 to 364 ng/mL
